Patent US20050059120A1, “Compositions, methods, and kits relating to resistin-like molecules” (TheTrustees of the University of Pennsylvania, priority 2000, published 2005)
Entries after “also recorded” stand apart in the source; their conditions may differ. At least one compound was matched to its structure with a doubt left.

Key:
RELMα gene expression = assay: Northern blot of RELMα expression in white adipose tissue of rosiglitazone-treated ob/ob mice; format: in vivo, mouse; conditions: epididymal white adipose tissue, rosiglitazone vs control vehicle
[1] = test system: RELMβ gene expression in LS124T cells; assay: Northern blot of RELMβ gene expression in human intestinal cell line treated with rosiglitazone; format: cell-based; conditions: increasing concentrations of rosiglitazone
resistin expression = assay: Northern blot of resistin expression in white adipose tissue of rosiglitazone-treated ob/ob mice; format: in vivo, mouse; conditions: epididymal white adipose tissue, rosiglitazone vs control vehicle

CN(CCOc1ccc(CC2SC(=O)NC2=O)cc1)c1ccccn1 (stereo not drawn) [rosiglitazone]
RELMα gene expression (Northern blot) (RELMα gene expression): markedly increased
RELMβ gene expression (Northern blot) [1]: dose-dependent increase; also recorded: markedly increased
resistin expression (Northern blot) (resistin expression): down regulation; also recorded: decreased
